The numbers were not newly measured in US7196195B2 (Richter Gedeon Vegyészeti Gyár RT., priority 2000, dated 2007), which cites them from elsewhere.

Molecules are shown by their SMILES.

`Clc1ccc2c(c1)CCc1cccnc1C2=C1CCNCC1` [desloratadine, 8-chloro-6,11-dihydro-11-(4-piperidilydene)-5H-benzo[5,6]cyclohepta[1,2-b]pyridine]: the “antihistaminic activity lasts for” value (duration of antihistaminic activity) is given as 24 h. Where the note is “oral, relative to loratadine”, the “times more active orally than loratidine” value was 2.5–4 times.
